This data set has as its system repeated implantation failure (RIF) patients with elevated Th1/Th2 cell ratios. In words: Tacrolimus treatment of repeated implantation failure (RIF) patients during IVF/ET, prospective cohort study (Example 1). It counts as in vivo, human. Particulars: 15 newborns, mean ± standard deviation. On the procedure:
This was a prospective cohort study of treatment for RIF patients (n=42) with elevated peripheral blood Th1 (CD4^+/IFN-γ^+)/Th2 (CD4^+/IL-4^+) cell ratios at the Sugiyama clinic between November 2011 and October 2013. Twenty-five patients were treated with tacrolimus (treatment group) and 17 received no treatment (control group).
Treatment group continuously received tacrolimus from two days before embryo transfer until the day of the pregnancy test, for a total of 16 days. The daily dose of tacrolimus (1-3 mg) was determined based on the degree of the Th1/Th2 cell ratio. […]
Study patients were assessed by transvaginal ultrasound, hysterosalpingography, and hysteroscopy before the index ART cycle. […]
Blood was drawn between cycle day (CD) 5 and 10 prior to the index ART cycle for the evaluation of a baseline value of Th1/Th2 cell ratios. […] A Th1/Th2 cell ratio equal to 10.3 or above was classified as an elevated Th1/Th2 cell ratio, which was determined by the mean plus one standard deviation of Th1/Th2 cell ratio levels.
For the evaluation of a baseline value of Th1/Th2 cell ratios, total 10 ml of venous blood was obtained. Th1 and Th2 cells were determined by detecting the intracellular interferon (IFN)-γ and IL-4 production. […]

`C=CCC1/C=C(\C)CC(C)CC(OC)C2OC(O)(C(=O)C(=O)N3CCCCC3C(=O)OC(/C(C)=C/C3CCC(O)C(OC)C3)C(C)C(O)CC1=O)C(C)CC2OC` (centres unmarked) [tacrolimus, 17-Allyl-1,14-dihydroxy-12-[2-(4-hydroxy-3-methoxycyclohexyl)-1-methylvinyl]-23,2 5-dimethoxy-13,19,21,27-tetramethyl-11,28-dioxa-4-azatricyclo[22.3.1.04,9]octacos-18-ene-2,3,10,16-tetraone]: the “Height (cm)” value (height at birth) stood at 50.9 ± 0.9 cm. Also, the “Umbilical cord length (cm)” value (treatment group) was 56.2 ± 12.2 cm.

(Values after patent US12576070B2, “Medicine for improving state of pregnancy, and use thereof” (priority 2014, dated 2026).)
